Laboratory results as given in patent publication US11884647B2, “Compounds and methods for targeting pathogenic blood vessels” (THE REGENTS OF THE UNIVERSITY OF CALIFORNIA, priority 2019, dated 2024).
At least one read-out could not be matched to a standard name with certainty.

Each compound was assayed on tumor endothelial cells (CT26.CL25 colon cancer tumor) (assay: Colon CT26 ex vivo model of tumor angiogenesis). Conditions: Conc. 10 μm.
Format: cell-based, mouse
Protocol: This example describes a procedure to prepare a primary tumor angiogenesis model for assessing the efficacy of anti-cancer candidate agents.
1. The day before the experiment, spray all necessary tools with 70% ethanol and sterilize them under UV light overnight, including blade, dissecting and micro-dissecting scissors and […]. Place 24-well dishes at 4° C. to pre-chill plates and thaw Matrigel 24 hours before tumor dissection.
2. Spray 70% ethanol on working bench. Prepare two sterile petri dishes with 10 mL sterile PBS. Steps 3 and 4 are for mouse tumor models. For fresh human tumor, directly go to step 5.
3. Euthanize the tumor-bearing mice. Spray 70% ethanol on the mouse and remove the tumor using sterilized dissecting tools (avoid the fur). Rinse the tumor in petri dish with sterile PBS to remove ethanol and fur. Transfer the tumor to a new petri dish with PBS for dissection. Place the dish on ice.
4. Using pre-chilled sterile pipet tips to seed regular Matrigel in 24 well plates on ice. Matrigel (30 μL) is dropped in the middle of each well without touching the edge of the well (avoid introducing bubbles if possible).
5. Cut the tumor in halves using the sterile blade. Identify and isolate healthy tumor tissue that is not necrotic and is within the tumor capsule. Cut the healthy tumor tissue into small pieces. For instance, a suitable size for the tumor tissue is 0.5 mm (H)×0.5 mm (L)×0.3 mm (D) with a total volume of 0.075 mm^3.
6. Gently transfer and embed each tumor piece in the Matrigel drop in the 24-well plate. Place the embedded piece in the bottom and middle of each Matrigel drop. Keep the plate on ice all the time.
7. After seeding the tumor pieces, plates are incubated in a 37° C. cell culture incubator without medium for 10 minutes in order for the Matrigel to solidify.
8. Endothelial Growth Medium (0.5 mL) is added to each well and incubated at 37° C. with 5% CO2. Wait until the new endothelial cells have grown out of the tumor or are larger than 3 mm in diameter until treatment. This usually takes 4 days for the LL2 Lewis lung cancer model and 7 days for the CT26 colon cancer model. For human tumor models, the growth time is typically 2-3 weeks, depending on the tumor type. Media is changed every 4 days during prolonged culture. Typically, when the tumor tissue grows to 2 mm in diameter, it is good for drug testing. A size of about 3 mm in diameter can make visualization easier.
9. When the assay is ready to be analyzed for cell death (e.g., 48 hours after drug addition), prepare the dye mixture by mixing 6 μL of green dye to stain live cells (5 mg/mL Fluorescein diacetate or FDA in DMSO) with 30 μL of red dye (2.5 mg/mL Propidium iodide or PI in PBS) to stain dead cells in an Eppendorf tube. The FDA dye needs to be stored frozen in a −20° C. freezer because it has a labile ester bond.
10. Add 1 μL of the dye mixture to each well of the 24-well dish. It is usually performed one 24-well dish at a time given the amount of time needed to take pictures (the green dye is not as stable in the cells in the long term).
11. Gently rock the dish a few times to mix the dye with the media in the wells and incubate the dish at 37° C. for 10 min (too long incubation can make the green signal too intense).
12. Wash each well with 0.5 mL of sterile PBS and then add 0.5 mL of phenol red free SFM to each well. Alternatively 0.5 mL of regular Endothelial Cell Growth Media can be added to each well if this well needs to be continuously maintained after the experiment.
13. Look through all wells on an inverted microscope using the 2× objective lens to observe morphological changes.
14. Taking pictures in the red and green channels would allow not only the recording of the result but also more accurate quantitation of the result. To take pictures for all the wells, first pick a well that has robust red and green signals. […]

SMILES | 48 hrs (morphology observations after 48 hours)
COc1ccc(S(=O)(=O)c2cnc3ccc(OC(F)(F)F)cc3c2-n2cncn2)cc1OC [compound 89, 3-((3,4-dimethoxyphenyl)sulfonyl)-4-(1H-1,2,4-triazol-1-yl)-6-(trifluoromethoxy)quinoline] | *** (100% of endothelial cells vesicularize in cell shape)
CCCCCCCOc1ccc(S(=O)(=O)c2cnc3ccc([S+](C)[O-])cc3c2N2CCC(N3CCN(CCO)CC3)CC2)cc1 (stereo not shown) [compound 257, 2-(4-(1-(3-((4-(heptyloxy)phenyl)sulfonyl)-6-(methylsulfinyl)quinolin-4-yl)piperidin-4-yl)piperazin-1-yl)ethan-1-ol] | **** (100% of endothelial cells vesicularize in cell shape and look flattened in morphology (indicating disintegration of the cell body))

Same assay, conditions: Conc. 40 μm

SMILES | 48 hrs (morphology observations after 48 hours)
CCOC(=O)c1ccc2ncc(S(=O)(=O)c3ccc(OC)cc3)c(N3CCCC(O)C3)c2c1 (stereo not shown) [compound 137, ethyl 4-(3-hydroxypiperidin-1-yl)-3-((4-methoxyphenyl)sulfonyl)quinoline-6-carboxylate] | 0
CCCCOc1ccc(S(=O)(=O)c2cnc3ccc(C(=O)OCC)cc3c2N2CCSCC2)cc1 [compound 191, ethyl 3-((4-butoxyphenyl)sulfonyl)-4-thiomorpholinoquinoline-6-carboxylate] | 0
CCOC(=O)c1ccc2ncc(S(=O)(=O)c3ccc(CC)cc3)c(N3CCC(N4CCCCC4)CC3)c2c1 [compound 64, ethyl 4-([1,4′-bipiperidin]-1′-yl)-3-((4-ethylphenyl)sulfonyl)quinoline-6-carboxylate] | *** (100% of endothelial cells vesicularize in cell shape)
CCCCOc1ccc(S(=O)(=O)c2cnc3ccc(SC)cc3c2N2CCC(N3CCC(O)CC3)CC2)cc1 [compound 162, 1′-(3-((4-butoxyphenyl)sulfonyl)-6-(methylthio)quinolin-4-yl)-[1,4′-bipiperidin]-4-ol] | *** (100% of endothelial cells vesicularize in cell shape)
CCOC(=O)c1ccc2ncc(S(=O)(=O)c3ccc(CC)cc3)c(N3CCC(O)(c4cccc(OC)c4)CC3)c2c1 [compound 149, ethyl 3-((4-ethylphenyl)sulfonyl)-4-(4-hydroxy-4-(3-methoxyphenyl)piperidin-1-yl)quinoline-6-carboxylate] | * (50% or less of cells vesicularize in cell shape)
CCc1ccc(S(=O)(=O)c2cnc3ccc(OC(F)(F)F)cc3c2N2CCC(N3CCCC3)CC2)cc1 [compound 46, 3-((4-ethylphenyl)sulfonyl)-4-(4-(pyrrolidin-1-yl)piperidin-1-yl)-6-(trifluoromethoxy)quinoline] | **** (100% of endothelial cells vesicularize in cell shape and look flattened in morphology (indicating disintegration of the cell body))
COc1ccc(S(=O)(=O)c2cnc3ccc(OC(F)(F)F)cc3c2N2CCC(N3CCCCC3)CC2)cc1 [compound 43, 4-([1,4′-bipiperidin]-1′-yl)-3-((4-methoxyphenyl)sulfonyl)-6-(trifluoromethoxy)quinoline] | *** (100% of endothelial cells vesicularize in cell shape)
CCCCOc1ccc(S(=O)(=O)c2cnc3ccc(C(=O)OCC)cc3c2N2CCCN(C)CC2)cc1 [compound 158, ethyl 3-((4-butoxyphenyl)sulfonyl)-4-(4-methyl-1,4-diazepan-1-yl)quinoline-6-carboxylate] | **** (100% of endothelial cells vesicularize in cell shape and look flattened in morphology (indicating disintegration of the cell body))
CCCCN(CCCC)c1c(S(=O)(=O)c2ccc(OC)c(OC)c2)cnc2ccc(OC(F)(F)F)cc12 [compound 74, N,N-dibutyl-3-((3,4-dimethoxyphenyl)sulfonyl)-6-(trifluoromethoxy)quinolin-4-amine] | *** (100% of endothelial cells vesicularize in cell shape)
CCCCOc1ccc(S(=O)(=O)c2cnc3ccc(SC)cc3c2N2CCC(N3CCCCC3)CC2)cc1 [compound 159, 4-([1,4′-bipiperidin]-1′-yl)-3-((4-butoxyphenyl)sulfonyl)-6-(methylthio)quinoline] | **** (100% of endothelial cells vesicularize in cell shape and look flattened in morphology (indicating disintegration of the cell body))
CCCCOc1ccc(S(=O)(=O)c2cnc3ccc(C(=O)OCC)cc3c2N2CCC(N3CCCN(C)CC3)CC2)cc1 [compound 211, ethyl 3-((4-butoxyphenyl)sulfonyl)-4-(4-(4-methyl-1,4-diazepan-1-yl)piperidin-1-yl)quinoline-6-carboxylate] | **** (100% of endothelial cells vesicularize in cell shape and look flattened in morphology (indicating disintegration of the cell body))
CCOC(=O)c1ccc2ncc(S(=O)(=O)c3ccc(CC)cc3)c(N3CCC(O)(c4ccc(CC)cc4)CC3)c2c1 [compound 128, ethyl 4-(4-(4-ethylphenyl)-4-hydroxypiperidin-1-yl)-3-((4-ethylphenyl)sulfonyl)quinoline-6-carboxylate] | 0
CCOC(=O)c1ccc2ncc(S(=O)(=O)c3ccc(CC)cc3)c(N3CCC(O)(c4ccc(OC)cc4)CC3)c2c1 [compound 148, ethyl 3-((4-ethylphenyl)sulfonyl)-4-(4-hydroxy-4-(4-methoxyphenyl)piperidin-1-yl)quinoline-6-carboxylate] | 0
CCCCOc1ccc(S(=O)(=O)c2cnc3ccc(C(=O)OCC)cc3c2N2CCC(N3CCN(CCO)CC3)CC2)cc1 [compound 214, ethyl 3-((4-butoxyphenyl)sulfonyl)-4-(4-(4-(2-hydroxyethyl)piperazin-1-yl)piperidin-1-yl)quinoline-6-carboxylate] | **** (100% of endothelial cells vesicularize in cell shape and look flattened in morphology (indicating disintegration of the cell body))
O=[N+]([O-])c1ccc(S(=O)(=O)c2cnc3ccc(OC(F)(F)F)cc3c2N2CCC(N3CCCCC3)CC2)cc1 [compound 59, 4-([1,4′-bipiperidin]-1′-yl)-3-((4-nitrophenyl)sulfonyl)-6-(trifluoromethoxy)quinoline] | 0
CCOC(=O)c1ccc2ncc(S(=O)(=O)c3ccc(OC)cc3)c(N3CCC(OCCN(CC)CC)CC3)c2c1 [compound 140, ethyl 4-(4-(2-(diethylamino)ethoxy)piperidin-1-yl)-3-((4-methoxyphenyl)sulfonyl)quinoline-6-carboxylate] | ** (more than 50% but less than 100% of endothelial cells vesicularize in cell shape)
CN1CCCN(c2c(S(=O)(=O)c3ccc([N+](=O)[O-])cc3)cnc3ccc(OC(F)(F)F)cc23)CC1 [compound 60, 4-(4-methyl-1,4-diazepan-1-yl)-3-((4-nitrophenyl)sulfonyl)-6-(trifluoromethoxy)quinoline] | 0
CCc1ccc(S(=O)(=O)c2cnc3ccc(OC(F)(F)F)cc3c2N2CCC(O)(c3ccc(OC)cc3)CC2)cc1 [compound 145, 1-(3-((4-ethylphenyl)sulfonyl)-6-(trifluoromethoxy)quinolin-4-yl)-4-(4-methoxyphenyl)piperidin-4-ol] | 0
CCCCOc1ccc(S(=O)(=O)c2cnc3ccc([S+](C)[O-])cc3c2N2CCCN(CCN3CCCC3)CC2)cc1 (stereo not shown) [compound 210, 3-((4-butoxyphenyl)sulfonyl)-6-(methylsulfinyl)-4-(4-(2-(pyrrolidin-1-yl)ethyl)-1,4-diazepan-1-yl)quinoline] | *** (100% of endothelial cells vesicularize in cell shape)
COc1ccc(S(=O)(=O)c2cnc3ccc(OC(F)(F)F)cc3c2NN2CCN(C)CC2)cc1 [compound 85, 3-((4-methoxyphenyl)sulfonyl)-N-(4-methylpiperazin-1-yl)-6-(trifluoromethoxy)quinolin-4-amine] | 0
